Assay results published in paper PMC10657456.
Results are given in words; binding and its absence hold for the method and conditions named. In cells and extracts the contact can be indirect. Some binding calls cover weakened binding; strength is not graded here.

How the values were obtained:
[1] = target: T1, Topoisomerase 3β (TOP3B), endogenous (human (endogenous in HEK293 and HCT116)) (UniProt O95985); assay: co-IP; endogenous proteins precipitated with antibody (USP9X, TOP3B, MIB1 or TDRD3; 3 ug/tube) and Protein A/G magnetic beads from HEK293 or HCT116 lysate in IP lysis buffer with benzonase (total cellular TOP3B), beads washed with RIPA buffer, Western blot; some samples siTDRD3-transfected with MG132
T1 sequence: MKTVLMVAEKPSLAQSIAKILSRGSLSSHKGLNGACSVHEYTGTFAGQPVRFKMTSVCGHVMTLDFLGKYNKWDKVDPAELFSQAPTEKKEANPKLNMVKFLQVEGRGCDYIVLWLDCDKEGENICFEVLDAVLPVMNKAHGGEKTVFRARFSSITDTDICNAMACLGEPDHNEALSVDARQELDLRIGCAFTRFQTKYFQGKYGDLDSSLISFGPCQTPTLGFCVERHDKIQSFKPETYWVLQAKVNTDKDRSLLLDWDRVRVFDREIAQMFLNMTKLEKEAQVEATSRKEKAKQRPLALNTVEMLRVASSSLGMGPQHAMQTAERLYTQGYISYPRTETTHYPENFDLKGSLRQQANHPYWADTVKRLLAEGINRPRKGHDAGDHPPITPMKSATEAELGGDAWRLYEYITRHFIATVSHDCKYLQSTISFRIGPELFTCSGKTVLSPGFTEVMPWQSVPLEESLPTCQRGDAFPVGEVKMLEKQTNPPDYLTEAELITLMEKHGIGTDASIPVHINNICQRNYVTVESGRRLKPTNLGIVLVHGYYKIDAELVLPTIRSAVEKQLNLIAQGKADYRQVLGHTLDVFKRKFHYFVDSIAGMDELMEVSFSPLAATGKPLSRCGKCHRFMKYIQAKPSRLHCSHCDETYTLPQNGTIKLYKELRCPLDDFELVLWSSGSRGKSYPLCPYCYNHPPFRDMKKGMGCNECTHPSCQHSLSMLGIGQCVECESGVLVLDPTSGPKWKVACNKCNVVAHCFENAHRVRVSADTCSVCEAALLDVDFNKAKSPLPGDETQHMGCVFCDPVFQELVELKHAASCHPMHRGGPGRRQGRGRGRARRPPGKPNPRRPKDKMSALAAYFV

[2] = target: T1, Topoisomerase 3β (TOP3B), endogenous (human (endogenous in HEK293 and HCT116)); assay: co-IP; TOP3B pulled down from chromatin fractions isolated from HEK293 cells, Western blot
[3] = target: T1, Topoisomerase 3β (TOP3B), endogenous (human (endogenous in HEK293 and HCT116)); assay: condition: only free TOP3B (no nuclease/benzonase in IP buffer); co-IP; TOP3B pulled down from HEK293 cells with no nuclease/benzonase in IP buffer (free TOP3B), Western blot

binding [1]: binds
binding [2]: binds
binding [3]: no binding
B1: TRIM41, endogenous (enzyme, UniProt Q8WV44 1-630)
chain: MAAVAMTPNPVQTLQEEAVCAICLDYFTDPVSIGCGHNFCRVCVTQLWGGEDEEDRDELDREEEEEDGEEEEVEAVGAGAGWDTPMRDEDYEGDMEEEVEEEEEGVFWTSGMSRSSWDNMDYVWEEEDEEEDLDYYLGDMEEEDLRGEDEEDEEEVLEEVEEEDLDPVTPLPPPPAPRRCFTCPQCRKSFPRRSFRPNLQLANMVQVIRQMHPTPGRGSRVTDQGICPKHQEALKLFCEVDEEAICVVCRESRSHKQHSVVPLEEVVQEYKAKLQGHVEPLRKHLEAVQKMKAKEERRVTELKSQMKSELAAVASEFGRLTRFLAEEQAGLERRLREMHEAQLGRAGAAASRLAEQAAQLSRLLAEAQERSQQGGLRLLQDIKETFNRCEEVQLQPPEVWSPDPCQPHSHDFLTDAIVRKMSRMFCQAARVDLTLDPDTAHPALMLSPDRRGVRLAERRQEVADHPKRFSADCCVLGAQGFRSGRHYWEVEVGGRRGWAVGAARESTHHKEKVGPGGSSVGSGDASSSRHHHRRRRLHLPQQPLLQREVWCVGTNGKRYQAQSSTEQTLLSPSEKPRRFGVYLDYEAGRLGFYNAETLAHVHTFSAAFLGERVFPFFRVLSKGTRIKLCP
